Data taken from the M2OR odorant receptor database.
The list shows a part of the results, in another mix than the full data. Calls are pooled over several reports, among them a noisy single-well screen. The list shows a part of the results. Some of the results follow.

Experiments:
Details in all cases: stereoisomer not certain
OR56A5 (Homo sapiens) = target: T1, OR56A5 (Homo sapiens) (UniProt P0C7T3)
T1 sequence (whole entry): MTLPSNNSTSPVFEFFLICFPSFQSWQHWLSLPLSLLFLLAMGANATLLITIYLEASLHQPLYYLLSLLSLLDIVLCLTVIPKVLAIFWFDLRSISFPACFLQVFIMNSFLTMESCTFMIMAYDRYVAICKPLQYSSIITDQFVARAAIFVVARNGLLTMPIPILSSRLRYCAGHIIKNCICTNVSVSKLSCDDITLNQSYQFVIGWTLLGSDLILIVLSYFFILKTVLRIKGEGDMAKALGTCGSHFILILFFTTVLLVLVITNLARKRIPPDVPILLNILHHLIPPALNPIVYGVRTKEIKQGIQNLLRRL
How it was run: (§1)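 Values were gathered from published papers (main text and supplementary material), with extra details requested from the original authors when needed, and checked for typos and inconsistencies. Each receptor–molecule pair is called responsive (active) if the original authors judged the measured signal statistically different from baseline, and non-responsive (inactive) otherwise. Assay methods varied by source, often transient mammalian cell-line luciferase assays. Recorded details include cell line, G-protein, co-transfected protein and tags.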

OR5A1 [1] = system: T2, OR5A1
T2 sequence (whole entry): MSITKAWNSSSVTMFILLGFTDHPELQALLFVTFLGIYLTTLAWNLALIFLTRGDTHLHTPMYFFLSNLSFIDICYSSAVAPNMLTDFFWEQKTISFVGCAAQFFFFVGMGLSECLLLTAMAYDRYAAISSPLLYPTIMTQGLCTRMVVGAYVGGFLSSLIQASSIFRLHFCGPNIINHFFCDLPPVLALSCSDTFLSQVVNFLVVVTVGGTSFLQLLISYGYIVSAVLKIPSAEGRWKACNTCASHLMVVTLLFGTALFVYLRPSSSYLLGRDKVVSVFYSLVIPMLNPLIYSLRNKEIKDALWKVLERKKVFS
How it was run: as §1

OR5A1 [2] = system: T3, OR5A1; remark: listed apart in the source
T3 sequence (whole entry): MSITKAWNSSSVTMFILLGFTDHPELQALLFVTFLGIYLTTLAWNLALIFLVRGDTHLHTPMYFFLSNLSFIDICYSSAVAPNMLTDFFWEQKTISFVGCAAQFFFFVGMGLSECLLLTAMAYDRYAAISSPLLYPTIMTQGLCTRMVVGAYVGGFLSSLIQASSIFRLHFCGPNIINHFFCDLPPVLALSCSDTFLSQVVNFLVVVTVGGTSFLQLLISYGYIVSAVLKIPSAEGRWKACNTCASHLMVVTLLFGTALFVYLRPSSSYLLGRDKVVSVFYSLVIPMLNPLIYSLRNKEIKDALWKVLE
How it was run: as §1

OR5A1 [3] = system: T4, OR5A1; remark: listed apart in the source
T4 sequence (whole entry): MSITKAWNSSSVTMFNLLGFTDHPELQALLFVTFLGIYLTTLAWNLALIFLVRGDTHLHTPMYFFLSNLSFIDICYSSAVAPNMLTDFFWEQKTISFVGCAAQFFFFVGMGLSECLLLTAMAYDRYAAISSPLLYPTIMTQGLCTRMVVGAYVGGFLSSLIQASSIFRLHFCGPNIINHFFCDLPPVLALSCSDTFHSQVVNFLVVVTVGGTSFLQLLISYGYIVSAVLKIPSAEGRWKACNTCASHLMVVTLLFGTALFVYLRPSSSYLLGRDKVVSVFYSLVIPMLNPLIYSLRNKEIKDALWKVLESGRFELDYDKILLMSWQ
How it was run: as §1

OR5A2 (Homo sapiens) = target: T5, OR5A2 (Homo sapiens) (UniProt Q8NGI9)
T5 sequence (whole entry): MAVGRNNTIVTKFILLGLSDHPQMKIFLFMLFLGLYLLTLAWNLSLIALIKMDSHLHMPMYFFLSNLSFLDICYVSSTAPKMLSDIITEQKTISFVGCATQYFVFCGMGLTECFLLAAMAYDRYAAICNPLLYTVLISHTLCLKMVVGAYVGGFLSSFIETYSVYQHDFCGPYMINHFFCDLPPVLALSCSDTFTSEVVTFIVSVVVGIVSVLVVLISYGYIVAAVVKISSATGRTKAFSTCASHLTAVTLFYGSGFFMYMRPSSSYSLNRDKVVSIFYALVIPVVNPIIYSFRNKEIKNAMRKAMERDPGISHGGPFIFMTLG
How it was run: as §1

OR5AK2 (Homo sapiens) = target: T6, OR5AK2 (Homo sapiens) (UniProt Q8NH90)
T6 sequence (whole entry): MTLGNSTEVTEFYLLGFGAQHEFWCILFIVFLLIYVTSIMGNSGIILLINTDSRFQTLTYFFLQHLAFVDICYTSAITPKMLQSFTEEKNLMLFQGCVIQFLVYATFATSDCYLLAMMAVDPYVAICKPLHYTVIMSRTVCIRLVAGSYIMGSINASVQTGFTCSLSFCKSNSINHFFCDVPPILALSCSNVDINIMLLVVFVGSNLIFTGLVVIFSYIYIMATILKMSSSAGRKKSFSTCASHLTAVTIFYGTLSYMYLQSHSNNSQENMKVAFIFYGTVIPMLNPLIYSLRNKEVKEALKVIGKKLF
How it was run: as §1

OR5AN1 (Homo sapiens) = target: T7, OR5AN1 (Homo sapiens) (UniProt Q8NGI8)
T7 sequence (whole entry): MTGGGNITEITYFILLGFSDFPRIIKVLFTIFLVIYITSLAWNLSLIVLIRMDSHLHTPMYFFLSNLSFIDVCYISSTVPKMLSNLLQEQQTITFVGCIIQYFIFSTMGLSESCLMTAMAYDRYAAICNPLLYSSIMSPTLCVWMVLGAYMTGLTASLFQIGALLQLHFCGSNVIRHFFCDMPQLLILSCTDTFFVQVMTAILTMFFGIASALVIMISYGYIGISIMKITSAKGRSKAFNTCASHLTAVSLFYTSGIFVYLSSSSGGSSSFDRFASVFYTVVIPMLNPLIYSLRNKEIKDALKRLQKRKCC
How it was run: as §1

OR5AR1 (Homo sapiens) = target: T8, OR5AR1 (Homo sapiens) (UniProt Q8NGP9)
T8 sequence (whole entry): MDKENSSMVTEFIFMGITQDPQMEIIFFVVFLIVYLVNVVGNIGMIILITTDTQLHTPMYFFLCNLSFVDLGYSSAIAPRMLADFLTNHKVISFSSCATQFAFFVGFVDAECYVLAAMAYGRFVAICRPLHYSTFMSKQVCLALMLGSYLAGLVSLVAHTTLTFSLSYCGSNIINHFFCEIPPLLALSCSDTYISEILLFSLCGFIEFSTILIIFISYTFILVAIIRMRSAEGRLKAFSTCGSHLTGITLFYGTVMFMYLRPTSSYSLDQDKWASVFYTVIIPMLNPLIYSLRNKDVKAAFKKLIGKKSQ
How it was run: as §1

OR5AS1 (Homo sapiens) = target: T9, OR5AS1 (Homo sapiens) (UniProt Q8N127)
T9 sequence (whole entry): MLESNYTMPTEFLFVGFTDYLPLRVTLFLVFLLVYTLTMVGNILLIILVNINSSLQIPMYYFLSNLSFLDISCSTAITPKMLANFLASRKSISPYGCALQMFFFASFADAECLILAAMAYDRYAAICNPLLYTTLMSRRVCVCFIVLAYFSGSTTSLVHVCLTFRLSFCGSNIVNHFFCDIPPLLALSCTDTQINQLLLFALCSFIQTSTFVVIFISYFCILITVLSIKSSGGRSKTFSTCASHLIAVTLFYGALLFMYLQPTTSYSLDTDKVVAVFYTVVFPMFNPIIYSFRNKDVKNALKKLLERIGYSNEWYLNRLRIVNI
How it was run: as §1

OR5AU1 (Homo sapiens) = target: T10, OR5AU1 (Homo sapiens) (UniProt Q8NGC0)
T10 sequence (whole entry): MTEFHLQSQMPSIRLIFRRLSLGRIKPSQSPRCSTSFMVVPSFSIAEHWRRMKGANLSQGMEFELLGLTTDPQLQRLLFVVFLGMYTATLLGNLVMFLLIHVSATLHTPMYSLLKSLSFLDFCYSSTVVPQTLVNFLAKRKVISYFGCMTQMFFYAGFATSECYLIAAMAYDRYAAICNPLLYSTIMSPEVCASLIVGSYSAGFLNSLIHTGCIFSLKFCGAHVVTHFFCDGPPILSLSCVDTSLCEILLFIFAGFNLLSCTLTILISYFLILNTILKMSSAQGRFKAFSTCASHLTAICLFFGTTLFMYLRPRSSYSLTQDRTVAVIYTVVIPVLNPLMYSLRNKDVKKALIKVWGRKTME
How it was run: as §1

OR5B17 (Homo sapiens) = target: T11, OR5B17 (Homo sapiens) (UniProt Q8NGF7)
T11 sequence (whole entry): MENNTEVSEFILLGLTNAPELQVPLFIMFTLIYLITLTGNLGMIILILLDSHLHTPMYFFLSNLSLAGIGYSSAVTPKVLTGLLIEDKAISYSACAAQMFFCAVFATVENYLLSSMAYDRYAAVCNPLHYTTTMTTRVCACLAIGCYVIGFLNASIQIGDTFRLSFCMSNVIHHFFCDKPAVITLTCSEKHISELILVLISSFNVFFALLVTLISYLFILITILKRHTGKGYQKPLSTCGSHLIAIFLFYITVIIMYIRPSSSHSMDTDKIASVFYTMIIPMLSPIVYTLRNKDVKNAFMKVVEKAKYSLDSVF
How it was run: as §1

OR56B1 (Homo sapiens) = target: T12, OR56B1 (Homo sapiens) (UniProt Q8NGI3)
T12 sequence (whole entry): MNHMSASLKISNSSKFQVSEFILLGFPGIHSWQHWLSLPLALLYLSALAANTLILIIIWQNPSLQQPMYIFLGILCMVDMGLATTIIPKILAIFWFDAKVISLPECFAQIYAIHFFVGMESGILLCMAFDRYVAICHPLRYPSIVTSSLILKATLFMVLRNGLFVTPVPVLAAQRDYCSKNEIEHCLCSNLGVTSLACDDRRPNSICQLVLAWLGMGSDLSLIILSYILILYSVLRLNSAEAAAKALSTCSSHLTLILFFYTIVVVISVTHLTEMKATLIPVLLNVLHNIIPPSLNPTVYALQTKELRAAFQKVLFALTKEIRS
How it was run: as §1

OR56B4 (Homo sapiens) = target: T13, OR56B4 (Homo sapiens) (UniProt Q8NH76)
T13 sequence (whole entry): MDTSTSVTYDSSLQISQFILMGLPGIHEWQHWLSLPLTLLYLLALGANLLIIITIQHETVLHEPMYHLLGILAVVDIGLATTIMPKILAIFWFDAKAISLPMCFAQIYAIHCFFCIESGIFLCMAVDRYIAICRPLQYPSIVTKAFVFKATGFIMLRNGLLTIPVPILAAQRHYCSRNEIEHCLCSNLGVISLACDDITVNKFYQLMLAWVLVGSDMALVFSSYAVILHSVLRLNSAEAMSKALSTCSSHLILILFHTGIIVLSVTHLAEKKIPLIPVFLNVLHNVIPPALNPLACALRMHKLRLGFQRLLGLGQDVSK
How it was run: as §1

Compound | odorant receptor agonist call (OR56A5 (Homo sapiens)) | odorant receptor agonist call (OR5A1 [1]) | odorant receptor agonist call (OR5A1 [2]) | odorant receptor agonist call (OR5A1 [3]) | odorant receptor agonist call (OR5A2 (Homo sapiens)) | odorant receptor agonist call (OR5AK2 (Homo sapiens)) | odorant receptor agonist call (OR5AN1 (Homo sapiens)) | odorant receptor agonist call (OR5AR1 (Homo sapiens)) | odorant receptor agonist call (OR5AS1 (Homo sapiens)) | odorant receptor agonist call (OR5AU1 (Homo sapiens)) | odorant receptor agonist call (OR5B17 (Homo sapiens)) | odorant receptor agonist call (OR56B1 (Homo sapiens)) | odorant receptor agonist call (OR56B4 (Homo sapiens))
C=C(C)C1CCC2=CC(=O)CC(C)C2(C)C1 (centres undefined) | active |  |  |  |  |  |  |  |  |  |  |  | 
CC(C)=CCCC(C)=CC=O | inactive | inactive | inactive | inactive | inactive | inactive | inactive | inactive | inactive | inactive | inactive |  | 
CCCCO | inactive | inactive | inactive | inactive | inactive | inactive | inactive | inactive | inactive | inactive | inactive |  | 
CCCC(=O)O | inactive | inactive | inactive | inactive | inactive | inactive | inactive | inactive | active | inactive | inactive | inactive | inactive
CCCCCOC(C)=O | inactive | inactive | inactive | inactive | inactive | inactive | inactive | inactive | inactive | inactive | inactive |  | 
CCC=CCCO | inactive | inactive | inactive | inactive | inactive | inactive | inactive | inactive | inactive | inactive | inactive |  | 
CCCCCCOC(=O)CCC | inactive | inactive | inactive | inactive | inactive | inactive | inactive | inactive | inactive | inactive | inactive |  | 
